According to patent US20210311061A1, “USE OF TROP-2 AS PREDICTIVE MARKER OF RESPONSE TO ANTI-TUMOR THERAPY BASED ON INHIBITORS OF CD9, AKT AND MOLECULES OF THE TETRASPANIN SIGNALLING NETWORK” (ONCOXX BIOTECH S.R.L., priority 2012, published 2021):
No constants are given. Whether binding was seen depends on the method and setting. Binding seen in cells or lysates may run through a third protein. Some results given as binding are weak or reduced against the parent protein; the word gives no strength.

The chains behind the UniProt entries cited, without tags or fusion partners. Residues count along the entry.
UniProt P21926, residues 2-228: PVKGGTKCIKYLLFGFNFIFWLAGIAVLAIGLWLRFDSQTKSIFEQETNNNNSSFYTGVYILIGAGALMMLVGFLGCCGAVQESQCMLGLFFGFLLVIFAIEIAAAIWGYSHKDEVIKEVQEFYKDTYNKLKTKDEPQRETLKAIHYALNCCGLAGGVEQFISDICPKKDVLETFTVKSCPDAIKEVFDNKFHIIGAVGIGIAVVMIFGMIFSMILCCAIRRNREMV
UniProt P09758, residues 27-323: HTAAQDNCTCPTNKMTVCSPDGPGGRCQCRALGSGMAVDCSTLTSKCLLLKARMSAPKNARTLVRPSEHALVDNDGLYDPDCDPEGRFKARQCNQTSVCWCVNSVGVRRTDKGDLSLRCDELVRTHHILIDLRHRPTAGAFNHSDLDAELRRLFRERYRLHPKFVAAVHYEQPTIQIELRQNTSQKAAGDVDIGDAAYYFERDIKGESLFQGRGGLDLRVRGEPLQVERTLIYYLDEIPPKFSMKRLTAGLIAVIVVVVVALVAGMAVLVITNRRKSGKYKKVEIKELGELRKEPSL

Tests used:
[1] = target: T1, murine CD9 (murine) (UniProt P40240); assay: co-capping and co-immunoprecipitation (also confocal co-localization), MTE 4-14 cells
T1 sequence (looked up): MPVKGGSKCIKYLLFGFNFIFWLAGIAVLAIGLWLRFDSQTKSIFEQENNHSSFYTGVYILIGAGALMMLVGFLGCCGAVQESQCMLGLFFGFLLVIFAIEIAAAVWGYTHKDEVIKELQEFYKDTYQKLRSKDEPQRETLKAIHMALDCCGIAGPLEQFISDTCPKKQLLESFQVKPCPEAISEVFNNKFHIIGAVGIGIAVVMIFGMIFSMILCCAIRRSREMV

[2] = target: human CD9 (human) (UniProt P21926); assay: co-capping and co-immunoprecipitation, MCF7 cells
[3] = target: T1, murine CD9 (murine); assay: co-immunoprecipitation from BRIJ lysate, Western blot, MTE 4-14 cells
[4] = target: human CD9 (human) (UniProt P21926); assay: co-immunoprecipitation from BRIJ lysate, Western blot, MCF7 cells

Measured: binding

Trop-2 (human, wild-type) (from UniProt P09758 27-323) (receptor)
binds: all assays above
